# Data published in PubChem BioAssay AID504467 (National Center for Advancing Translational Sciences (NCATS), 2011).
# In all, about 330,000 compounds went through this assay and about 7,700 (2.3%) were called active. Inconclusive means that the source gave no clear call. Such entries were picked first, then a sample of the others. The call rests on the fitted dose curve; in most records, active means well fitted inhibition curve with a large enough effect; inconclusive means small, poorly fitted or top-dose-only effect, or effect the other way; inactive means flat fitted curve, though single readings scatter. Potencies of inconclusive entries are doubtful fits and often do not repeat.
# Experiment: qHTS screen for small molecules that inhibit ELG1-dependent DNA repair in human embryonic kidney (HEK293T) cells expressing luciferase-tagged ELG1; further: nearly all actives have a fitted effect of over 55% in size
# Settings: HEK293T ELG1-luciferase reporter, luminescence, 16 h, DNA damage induced by 5-fluorouridine; activity change, negative = inhibition: at 46.1 µM (top of the series)
# Procedure, shortened: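 HEK293T cells expressing luciferase-tagged ELG1 (2,000/well) received 5-Fluorouridine plus compound or DMSO for 16 hr at 37 °C. Luciferase was read by ONE-Glo luminescence after 30 min at room temperature.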
# On the % scale 0 is the no-effect control and ±100 the full control effect; potency means the concentration at half of the fitted maximal effect.
Structure (SMILES),Potency,"activity change, negative = inhibition"
COc1ccc(C(=O)c2cc3ccc(O)cc3oc2=O)cc1,"inconclusive: 20.6 µM [activator, single point]",
COC(=O)C1=CN(Cc2ccc(OC)c(OC)c2)C=C(C(=O)OC)C1c1cccc(F)c1,"inconclusive: 29.1 µM [inhibitor, single point]",
O=C(NCc1cccnc1)c1csc2c1CCCC2,"inconclusive: 18.4 µM [activator, single point]",
CCOc1ccccc1NC(=O)N1CCC(C(=O)c2ccc(F)cc2)CC1,,inactive: -12.5%
COc1ccc(-c2cc(C(=O)NCC3CCCO3)c3ccccc3n2)cc1 (stereo not drawn),,inactive: -6.43%
COc1ccc(NC(=O)COC(=O)C(NC(=O)c2ccc(C)cc2)C(C)C)cn1 (stereo not drawn),"inconclusive: 16.4 µM [inhibitor, partial curve]",
O=C(Nc1ccc(N2CCN(C(=O)c3ccccc3)CC2)cc1)c1cccs1,"inconclusive: 32.6 µM [inhibitor, single point]",
Cc1ccc(CNC(=O)CS(=O)(=O)c2cn(CC(=O)N3CCOCC3)c3ccccc23)cc1,,inactive: -29.9%
O=[N+]([O-])c1cccc(-n2nncc2-c2ccccc2)c1,,inactive: -0.472%
CCN1C(=O)/C(=C/N2CCc3ccccc3C2)SC1=S,"inconclusive: 11.6 µM [activator, partial curve]",
COc1cc(/C=N/NC(=O)CCn2c3ccccc3c3ccccc32)ccc1O,"inconclusive: 29.1 µM [inhibitor, single point]",
CSc1cccc(NC(=O)C2CCCN(S(=O)(=O)c3cccs3)C2)c1 (stereo not drawn),"inconclusive: 18.3 µM [inhibitor, single point]",
O=C(N/N=C1\CCCCc2ccccc21)c1ccccn1,"inconclusive: 14.6 µM [activator, partial curve]",
CCOC(=O)c1c(C)oc2c1c1c(c3ccccc32)OCN(Cc2ccccn2)C1,"inconclusive: 16.4 µM [activator, partial curve]",
O=C(Nc1ccc(Br)cc1)c1ccc(N2C(=O)C3CC=C(Cl)CC3C2=O)cc1 (stereo not drawn),"inconclusive: 7.31 µM [inhibitor, partial curve, poor fit]",
C[C@@H]1O[C@@H](O[C@H]2[C@H](O[C@H]3C[C@]4(C)C(C[C@@H](O)C5C([C@]6(C)CC[C@@H](C(C)(C)O)O6)CC[C@]54C)[C@@]4(C)CC[C@H](O)C(C)(C)C34)O[C@H](CO)[C@@H](O)[C@@H]2O)[C@H](O)[C@H](O)[C@H]1O (stereo partly drawn),,inactive: 0%
COC(=O)c1c(C)[nH]c(C(=O)OCC(=O)c2ccc(C)s2)c1C,"inconclusive: 3.66 µM [activator, single point]",
Cc1c(C(=O)O)sc2[nH]c(=O)n(Cc3ccccc3)c(=O)c12,,inactive: -0.445%
CCCOc1ccc(CC(=O)NNC(=S)Nc2ccccc2)cc1Br,,inactive: 4.19%
COc1ccccc1-c1cc(C(=O)Nc2cc(C)on2)no1,"inconclusive: 7.31 µM [activator, partial curve, poor fit]",
Cc1csc(CNC(=O)c2ccc(OC3CCN(CCc4ccccc4)CC3)cc2)n1,"inconclusive: 23.1 µM [activator, partial curve, poor fit]",
COC(=O)c1c(NC(=O)CSc2nnc(-c3ccco3)n2Cc2ccccc2)sc(C)c1C,"inconclusive: 23.1 µM [inhibitor, single point]",
CCOC(=O)c1c(C)nc2ccc(Cl)cc2c1-c1ccccc1,"inconclusive: 20.6 µM [inhibitor, single point]",

Structure (SMILES),Potency,"activity change, negative = inhibition"
CCOc1ccc(C(=O)NCc2ccco2)cc1,"inconclusive: 23.1 µM [activator, single point]",
CCOC(=O)[C@H]1[C@H]2COc3ccc(C)cc3[C@@H]2N2C(=O)c3cc(F)c(F)cc3NC(=O)[C@@]12C,"inconclusive: 17.8 µM [inhibitor, partial curve, poor fit]",
Cc1ccc(S(=O)(=O)NCC(=O)N(CC(=O)NCc2ccco2)Cc2ccc(F)cc2)cc1,,inactive: 11.9%
O=C(OCc1ccccc1)/C(=C/c1cccc(Br)c1)NC(=O)c1ccco1,"inconclusive: 25.9 µM [inhibitor, partial curve]",
CN(C)c1ccc(SC#N)cc1,active: 18.3 µM,
Cc1cc(C)cc(NC(=O)NNC(=O)c2cc3occc3[nH]2)c1,"inconclusive: 16.4 µM [activator, single point]",
Cc1cccc(OCCC(=O)Nc2ccc(F)c(Cl)c2)c1,,inactive: 0.713%
CC1CN/C(=C\C(=O)c2ccc(Cl)cc2)C(=O)N1 (stereo not drawn),"inconclusive: 1.3 µM [activator, partial curve]",
CC(C)(CO)N=C1NS(=O)(=O)c2cc([N+](=O)[O-])ccc21,,inactive: 1.85%
C=CCNc1nc(-c2ccc(Cl)cc2)cs1,"inconclusive: 3.16 µM [activator, partial curve, poor fit]",
CCC1=C(OC(=O)N(CC)CC)N2C(=O)OC(=NCCOC)[C@]2(Cc2ccccc2)[C@H]2C1=CC[C@H]1C(=O)N(CC)C(=O)[C@H]12,,inactive: 1.35%
COC(=O)c1ccc(/C=N/NC(=O)C2CC(=O)N(c3ccc(F)cc3)C2)cc1 (stereo not drawn),"inconclusive: 16.4 µM [activator, partial curve, poor fit]",
Cc1ccc(Nc2nnc(SC(C)C(=O)NCC3CCCO3)s2)cc1 (stereo not drawn),"inconclusive: 29.1 µM [inhibitor, single point]",
O=C(COC(=O)c1ccco1)Nc1cc(S(=O)(=O)N2CCOCC2)ccc1Cl,,inactive: -0.122%
O=c1c2sc3nc(N4CCOCC4)c4c(c3c2ncn1-c1ccccc1)CCCC4,"inconclusive: 18.3 µM [inhibitor, single point]",
Cn1nccc1C(=O)NC1CCCc2c1cnn2-c1ccccc1F (stereo not drawn),"inconclusive: 0.366 µM [inhibitor, partial curve]",
Cc1ccc(/C=C/C2=NN(C)C(=O)CC2)cc1,"inconclusive: 10.3 µM [activator, partial curve]",
COc1ccccc1NC(=O)CSc1nnc(CC(=O)Nc2ccccc2C)n1C,,inactive: 10.2%
COc1ccc(/C=C/c2cc(C(F)(F)F)[nH]c(=O)n2)cc1OC,,inactive: 3.11%
COc1cc(C(=O)OCc2cccc(S(=O)(=O)N3CCOCC3)c2)ccc1OCC(C)C,"inconclusive: 25.9 µM [inhibitor, single point]",
O=C(c1ccco1)N1CCN(Cc2ccc(F)cc2Cl)CC1,"inconclusive: 16.4 µM [activator, partial curve]",
Cc1ccccc1Cn1cc(NS(=O)(=O)c2cn(C)nc2C)cn1,"inconclusive: 32.6 µM [activator, partial curve, poor fit]",
Cc1ccc(NC(=S)/C(=C(\[O-])c2ccc(C)c([N+](=O)[O-])c2)[n+]2ccccc2)cc1C,"inconclusive: 13 µM [activator, partial curve]",

# Quoted from the listing.
# COC(=O)c1ccc(/C=N/NC(=O)C2CC(=O)N(c3ccc(F)cc3)C2)cc1 (stereo not drawn) – Potency: inconclusive: 16.4 µM [activator, partial curve, poor fit]
# Cc1cc(C)cc(NC(=O)NNC(=O)c2cc3occc3[nH]2)c1 – Potency: inconclusive: 16.4 µM [activator, single point]
# Cn1nccc1C(=O)NC1CCCc2c1cnn2-c1ccccc1F (stereo not drawn) – Potency: inconclusive: 0.366 µM [inhibitor, partial curve]
# CC1CN/C(=C\C(=O)c2ccc(Cl)cc2)C(=O)N1 (stereo not drawn) – Potency: inconclusive: 1.3 µM [activator, partial curve]

# Following part

Structure (SMILES),Potency,"activity change, negative = inhibition"
O=C(NCc1ccccn1)c1cc(Cl)ccc1OCc1ccccc1,active: 16.4 µM,
CCOc1ccc(-n2c(SCC(=O)Nc3ccc(CC)cc3)nc3n[nH]c(C)c3c2=N)cc1,"inconclusive: 16.4 µM [activator, single point]",
COc1ccc(C(=O)NCc2ccc(-n3cccc3)cc2)cc1OC,"inconclusive: 18.3 µM [inhibitor, partial curve, poor fit]",
Cc1ccc(C)c(Cn2nc(-c3ccccc3)ccc2=O)c1,"inconclusive: 2.31 µM [inhibitor, partial curve, poor fit]",
CCN(CC)CCNc1ncnc2c1sc1nc(N3CCCC3)c3c(c12)CC(C)(C)OC3,"inconclusive: 29.1 µM [inhibitor, single point]",
CC(=O)c1ccc(NC(=O)CSc2nccn2C)cc1,"inconclusive: 20.6 µM [activator, partial curve]",
Nc1nc2ccc(C(=O)NC3CCCCC3)cc2s1,"inconclusive: 18.4 µM [activator, single point]",
O=C(N/N=C/c1ccccn1)c1cc(-c2ccc(Cl)s2)[nH]n1,,inactive: -1.91%
O=C(NC(=S)NNC(=O)c1ccco1)c1ccc(Br)cc1,,inactive: -1.38%
O=C(CSc1ccc(-c2ccco2)nn1)N1CCCCC1,"inconclusive: 23.1 µM [activator, single point]",
CN(C)CC1CCCCC1OC(=O)c1ccc(Cl)cc1 (stereo not drawn),,inactive: 4%
O=C(CN1C(=O)c2ccccc2S1(=O)=O)Nc1ncc(Cl)cc1Cl,"inconclusive: 14.6 µM [activator, single point]",
COc1ccc(OC)c(NC(=O)Nc2cccc3ccccc23)c1,,inactive: -19.7%
Cn1c(=O)n(C)c2cc(S(=O)(=O)Nc3ccccc3O)ccc21,"inconclusive: 16.4 µM [activator, single point]",
COc1ccc(-c2cn(Cc3ccc(C(N)=O)cc3)c(CCN)n2)cc1,"inconclusive: 22.4 µM [activator, single point]",
CCC(=O)N1CCN(c2nc3ccccc3s2)CC1,"inconclusive: 9.2 µM [activator, partial curve]",
CCCO/N=C1/C(=O)N(c2ccccc2)c2ccccc21,,inactive: 8.27%
O=C(Nc1ccc(F)cc1)/C(Cl)=C/c1ccccc1,"inconclusive: 9.2 µM [activator, partial curve]",
CS(=O)(=O)c1cccc(C(=O)Nc2ccc(S(=O)(=O)N3CCCCC3)cc2)c1,"inconclusive: 7.3 µM [inhibitor, partial curve, poor fit]",
Cc1nc(-c2ccc(C(=O)Nc3ccccc3F)cc2)cs1,"inconclusive: 0.651 µM [activator, full curve]",
CCC(C)(C)C1CCc2c(sc(N)c2C(N)=O)C1 (stereo not drawn),,inactive: -20.5%
COC(=O)c1cc(S(=O)(=O)N2CCN(c3ccccc3F)CC2)c[nH]1,,inactive: -26.3%
